The numbers were not newly measured in patent publication EP4599821A1, “CANNABIDIOL-COMPRISING LIPOSOMES” (Novozymatic BV, priority 2024, dated 2025), which cites them from elsewhere.

The conditions of this series: oral, expected; cited from earlier work.

As for `C=C(C)[C@@H]1CCC(C)=C[C@H]1c1c(O)cc(CCCCC)cc1O` [CBD, cannabidiol], the “bioavailability following administration with food” value is recorded as 14-25%.
